Test results: patent US11136349 (dated 2021)

Assay: general procedure: Fmoc solid-phase peptide synthesis; 2-chlorotrityl chloride resin (100-200 mesh, 1.2 meq/g, crosslinked polystyrene); HBTU/DIPEA
Conditions: cyclisation step, HPLC-determined reaction yield

Substance	cyclisation yield
cyclo-[Aba-Ala-Leu-Pbe-Lys(Boc)-Pro-Ala-Phe-Ala-Leu-Pro-Glu(OBu)-Leu-Phe-VaI]	60%
cyclo-[Aba-Val-Thr(tBu)-Phe-Trp(Boc)	56%
cyclo-[Aba-Phe-(Me)Ala-Tyr(tBu)-Val]	66%
cyclo[(3-Ac)pa-Phe-Leu-Ala-Phe]	48%
cyclo-[Ahda-Phe-Leu-Ala-Phe]	38%
cyclo[(3-Aep)pa-Phe-[Leu-Aa-Phe]	49%
cyclo-[Aba-Phe-Pra-Ala-Lys(Boc)]	82%
cyclo-[Aba-Phe-Leu-Ala-His(Trt)]	65%
cyclo-[Aba-Ala-Phe-Leu-Pro-Ala-Thr(tBu)-Val-Tyr(tBu)-Leu]	64%
cyclo-[Aba-Phe-Gln(Trt)-Leu-Lys(Boc)]	94%
cyclo-[Aba-Phe-Leu-Ai-Phe(4-Br)]	48%
cyclo-[Aba-Phe-Met-Leu-Glu(OtBu)]	40%
cyclo-[Aha-Phe-Arg(Bo)2-Ser(tBu)-Ala]	59%
